# Source: patent US20140356909A1
# Results are given in words; binding and its absence hold for the method and conditions named. Some binding calls cover weakened binding; strength is not graded here.
# Molecular target: cynomolgus monkey IL-17A (cynomolgous monkey (cyno))
# Assay: ELISA of hybridoma supernatants
row,binding,Binder
1,binds,"ML109-10F7 (antibody, V domains shown) VH: QVQLQQSGAELVRPGTSVTLSCKASGYIFTDYEIHWVKQTPVHGLEWIGVNDPESGGTFYNQKFDGKAELTADKSSSTAYMELRSLTSEDSGVYYCTRYYRYESFYGMDYWGQGTSITVSS VL: QIVLTQSPAIMSASPGEKVTMTCSASSSISYIYWFQQKPGTSPKRWIYATFELASGVPARFSGSGSGTSYSLTISSMEAEDAATYYCHQRSSYPWTFGGGSKLEIKR"
2,binds,"ML109-6C6 (antibody, V domains shown) VH: QVQLQQSGAELVRPGASVKLSCKASGYTFSDYEIHWVKQTPVHGLAWIGVIHPGNGGTAYNQKFKDKATLTADKSSSTAYMELSSLTSEDSAVYYCERFLTYEGYFDYWGQGTTLTVSS VL: SIVMTQTPKFLLVSAGDRVTITCKASQSVNNDVAWYQHKPGQSPKLLINYASNRYTGVPDRFTGSGYGTDFTFTISTVQAEDLAIYFCQQDYGSPYTFGGGTKLEIKR"
